Source: the supplement of paper PMC8728848
The other results are listed elsewhere or left out.

Experiments:
Test in all cases: glycan array binding signal (z-score within array); higher = stronger binding
Conditions in all cases: glycan notation: IUPAC condensed, linker removed
[1] = target: Gal(a1-3)Gal(b1-4)GlcNAc
How it was run: (§1)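 Negative Z-scores can be read as non-binding. The Z-score is calculated within each array and then averaged across arrays of one protein sequence at different concentrations or buffers and across linkers. Arrays, 3228 in all, were curated from the Consortium for Functional Glycomics database and kept only where the protein sequence was available.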

[2] = target: Gal(a1-3)Gal(b1-4)GlcNAc(b1-2)Man
How it was run: as §1

[3] = target: Gal(a1-3)Gal(b1-4)GlcNAc(b1-2)Man(a1-3)[Gal(a1-3)Gal(b1-4)GlcNAc(b1-2)Man(a1-6)]Man(b1-4)GlcNAc(b1-4)GlcNAc
How it was run: as §1

[4] = target: Gal(a1-3)Gal(b1-4)GlcNAc(b1-3)GalNAc
How it was run: as §1

[5] = target: Gal(a1-3)Gal(b1-4)GlcNAc(b1-6)GalNAc
How it was run: as §1

[6] = target: Gal(a1-3)Gal(b1-4)[Fuc(a1-3)]GlcNAc
How it was run: as §1

[7] = target: Gal(a1-3)Gal(b1-4)[Fuc(a1-3)]GlcNAc(b1-2)Man(a1-3)[Gal(a1-3)Gal(b1-4)[Fuc(a1-3)]GlcNAc(b1-2)Man(a1-6)]Man(b1-4)GlcNAc(b1-4)GlcNAc
How it was run: as §1

[8] = target: Gal(a1-3)GalNAc
How it was run: as §1

[9] = target: Gal(a1-3)[Gal(a1-4)]Gal(b1-4)GlcNAc
How it was run: as §1

[10] = target: Gal(a1-4)Gal(b1-3)GlcNAc(b1-2)Man(a1-3)[Gal(a1-4)Gal(b1-3)GlcNAc(b1-2)Man(a1-6)]Man(b1-4)GlcNAc(b1-4)GlcNAc
How it was run: as §1

[11] = target: Gal(a1-4)Gal(b1-4)Glc
How it was run: as §1

[12] = target: Gal(a1-4)Gal(b1-4)GlcNAc
How it was run: as §1

[13] = target: Gal(a1-4)Gal(b1-4)GlcNAc(b1-2)Man(a1-3)[Gal(a1-4)Gal(b1-4)GlcNAc(b1-2)Man(a1-6)]Man(b1-4)GlcNAc(b1-4)GlcNAc
How it was run: as §1

[14] = target: Gal(a1-4)Gal(b1-4)GlcNAc(b1-3)Gal(b1-4)Glc
How it was run: as §1

[15] = target: Gal(a1-4)GlcNAc
How it was run: as §1

[16] = target: Gal(a1-6)Glc
How it was run: as §1

[17] = target: Gal(b1-2)Gal
How it was run: as §1

[18] = target: Gal(b1-3)Gal
How it was run: as §1

[19] = target: Gal(b1-3)Gal(b1-4)GlcNAc
How it was run: as §1

[20] = target: Gal(b1-3)GalNAc
How it was run: as §1

[21] = target: Gal(b1-3)GalNAc(a1-3)[Fuc(a1-2)]Gal(b1-4)Glc
How it was run: as §1

[22] = target: Gal(b1-3)GalNAc(a1-3)[Fuc(a1-2)]Gal(b1-4)GlcNAc
How it was run: as §1

[23] = target: Gal(b1-3)GalNAc(b1-3)Gal
How it was run: as §1

[24] = target: Gal(b1-3)GalNAc(b1-3)Gal(a1-4)Gal(b1-4)Glc
How it was run: as §1

[25] = target: Gal(b1-3)GalNAc(b1-4)Gal(b1-4)Glc
How it was run: as §1

[26] = target: Gal(b1-3)GalNAc(b1-4)[Neu5Ac(a2-3)]Gal(b1-4)Glc
How it was run: as §1

[27] = target: Gal(b1-3)GlcNAc
How it was run: as §1

[28] = target: Gal(b1-3)GlcNAc(a1-3)Gal(b1-4)GlcNAc
How it was run: as §1

[29] = target: Gal(b1-3)GlcNAc(a1-6)Gal(b1-4)GlcNAc
How it was run: as §1

[30] = target: Gal(b1-3)GlcNAc(b1-2)Man
How it was run: as §1

[31] = target: Gal(b1-3)GlcNAc(b1-2)Man(a1-3)[Gal(b1-3)GlcNAc(b1-2)Man(a1-6)]Man(b1-4)GlcNAc(b1-4)GlcNAc
How it was run: as §1

[32] = target: Gal(b1-3)GlcNAc(b1-2)Man(a1-3)[Gal(b1-3)GlcNAc(b1-2)Man(a1-6)]Man(b1-4)GlcNAc(b1-4)[Fuc(a1-6)]GlcNAc
How it was run: as §1

[33] = target: Gal(b1-3)GlcNAc(b1-2)Man(a1-3)[GlcNAc(b1-4)][Gal(b1-3)GlcNAc(b1-2)Man(a1-6)]Man(b1-4)GlcNAc(b1-4)GlcNAc
How it was run: as §1

[34] = target: Gal(b1-3)GlcNAc(b1-2)[Gal(b1-3)GlcNAc(b1-6)]Man(a1-6)[Gal(b1-3)GlcNAc(b1-2)Man(a1-3)]Man(b1-4)GlcNAc(b1-4)GlcNAc
How it was run: as §1

[35] = target: Gal(b1-3)GlcNAc(b1-3)Gal(b1-3)GlcNAc
How it was run: as §1

[36] = target: Gal(b1-3)GlcNAc(b1-3)Gal(b1-4)Glc
How it was run: as §1

[37] = target: Gal(b1-3)GlcNAc(b1-3)Gal(b1-4)GlcNAc
How it was run: as §1

B1: MtEccB1 (Mycobacterium tuberculosis H37Rv), O69734 (protein)
chain: MGLRLTTKVQVSGWRFLLRRLEHAIVRRDTRMFDDPLQFYSRSIALGIVVAVLILAGAALLAYFKPQGKLGGTSLFTDRATNQLYVLLSGQLHPVYNLTSARLVLGNPANPATVKSSELSKLPMGQTVGIPGAPYATPVSAGSTSIWTLCDTVARADSTSPVVQTAVIAMPLEIDASIDPLQSHEAVLVSYQGETWIVTTKGRHAIDLTDRALTSSMGIPVTARPTPISEGMFNALPDMGPWQLPPIPAAGAPNSLGLPDDLVIGSVFQIHTDKGPQYYVVLPDGIAQVNATTAAALRATQAHGLVAPPAMVPSLVVRIAERVYPSPLPDEPLKIVSRPQDPALCWSWQRSAGDQSPQSTVLSGRHLPISPSAMNMGIKQIHGTATVYLDGGKFVALQSPDPRYTESMYYIDPQGVRYGVPNAETAKSLGLSSPQNAPWEIVRLLVDGPVLSKDAALLEHDTLPADPSPRKVPAGASGAP
glycan array binding signal (z-score) [1]: 1.38 | glycan array binding signal (z-score) [2]: -0.967 | glycan array binding signal (z-score) [3]: -0.269 | glycan array binding signal (z-score) [4]: -0.935 | glycan array binding signal (z-score) [5]: -1.1 | glycan array binding signal (z-score) [6]: -0.497 | glycan array binding signal (z-score) [7]: 2.03 | glycan array binding signal (z-score) [8]: -0.2 | glycan array binding signal (z-score) [9]: 0.908 | glycan array binding signal (z-score) [10]: -1.76 | glycan array binding signal (z-score) [11]: 0.676 | glycan array binding signal (z-score) [12]: -0.116 | glycan array binding signal (z-score) [13]: 0.041 | glycan array binding signal (z-score) [14]: -0.215 | glycan array binding signal (z-score) [15]: -0.402 | glycan array binding signal (z-score) [16]: -0.349 | glycan array binding signal (z-score) [17]: -1.09 | glycan array binding signal (z-score) [18]: 0.485 | glycan array binding signal (z-score) [19]: -0.055 | glycan array binding signal (z-score) [20]: -0.513 | glycan array binding signal (z-score) [21]: 1.1 | glycan array binding signal (z-score) [22]: -0.412 | glycan array binding signal (z-score) [23]: -0.796 | glycan array binding signal (z-score) [24]: -0.784 | glycan array binding signal (z-score) [25]: -0.659 | glycan array binding signal (z-score) [26]: -0.056 | glycan array binding signal (z-score) [27]: -0.425 | glycan array binding signal (z-score) [28]: -0.927 | glycan array binding signal (z-score) [29]: -0.462 | glycan array binding signal (z-score) [30]: 0.257 | glycan array binding signal (z-score) [31]: 2.58 | glycan array binding signal (z-score) [32]: -0.811 | glycan array binding signal (z-score) [33]: -0.871 | glycan array binding signal (z-score) [34]: 0.372 | glycan array binding signal (z-score) [35]: 0.213 | glycan array binding signal (z-score) [36]: 1.07 | glycan array binding signal (z-score) [37]: -0.737
